Source: the supplement of paper PMC5949888
Most values lie at the floor of the assay. Slopes are relative: functional sequences can read slightly below zero.

What follows are substances tested on Saccharomyces cerevisiae PS128 hsf1 delta, HSF1(1-493) fusion (assay: growth estimate (transactivation domain function in HSF1 fusion, heat-shock survival) (a.u. (slope of normalised read count over time)); higher = stronger growth at 37°C, i.e. more transactivation activity). Details: library: random library.

Substance	growth estimate
QLTVRHP	< -0.25
QLVCGMISFLPPQGVGFIAT	< -0.25
QLVCPIVAHTWHIQGFWLGC	< -0.25
QLVWKLDAQFAYYCSPNIPP	< -0.25
QLYTAMLAVCSSIVACDILS	< -0.25
QMLLEIAGSFPSPAASLWRL	< -0.25
QMLRLGGGVRLKILRFSQ	< -0.25
QMRKGYKGVL	< -0.25
QMV	-0.25
QNGLSAFF	< -0.25
QNGPSFG	< -0.25
QNGTG	< -0.25
QNHYASTRWSYR	< -0.25
QNLRLRCNVRKGCG	< -0.25
QNPGGRVDAAAGRNAMCLSK	< -0.25
QNTCSGIIGLGLKTVVNSRR	< -0.25
QNTSILNYCA	< -0.25
QPCFGARVLRLRVTLYDSRT	< -0.25
QPCRHG	< -0.25
QPDNRPMGRAPVVSIL	< -0.25
QPGA	< -0.25
QPIGTHL	< -0.25
QPKPWGLPHDKFKIVIVMRR	< -0.25
QPKQGNGLRVLMGRSTAGFY	< -0.25
QPKR	< -0.25

Substance	growth estimate
QPLSNSWVTELTSRVIQVLR	< -0.25
QPPTPLVVFLINGSIVSDTL	< -0.25
QPQALIEWCQRRIAMRFGFG	< -0.25
QPRSFGSVTWQVGTGGVGGF	< -0.25
QPS	< -0.25
QPSRDPMAHQ	< -0.25
QPTARC	< -0.25
QPVPATPADA	< -0.25
QPVWPSYRRPARLYLSIRVG	< -0.25
QPWERQPRCE	< -0.25
QPYCLYSAVRTCRGIQGRNP	< -0.25
QPYPW	< -0.25
QPYVHSSVNGRT	< -0.25
QQESPAIRFDVSIGRNELS	< -0.25
QQG	< -0.25
QQGKRLARLAT	< -0.25
QQGNVGAKTAT	< -0.25
QQMGHGF	< -0.25
QQRRPDSRDENPRFSVVTLL	< -0.25
QQSTRVHGTIATRTTITQS	< -0.25
QQVGSNCRVTAVGYPSTGSQ	< -0.25
QQVKTSW	< -0.25
QRAIYDEGVGLKSSPGVGSG	< -0.25
QRALIDAQH	< -0.25
QRCFPVIRSDYQLVEDL	< -0.25

Substance	growth estimate
QRCSGSHSGNDYKGKNSILP	-0.243
QRDDNRWGIVPLEYAVCSPG	< -0.25
QREHKCAD	< -0.25
QREHSVIH	< -0.25
QRGGLPAGRTRGNSLSSRVD	< -0.25
QRGGVPK	< -0.25
QRGPRRSFYARQNLTTRGSV	< -0.25
QRHDGYCDWGRLVRGCKSTA	< -0.25
QRIVMVGLRVANDAINHTQF	< -0.25
QRLEIRLCIMYNG	< -0.25
QRLTESGSVHKRLNDHPRQP	< -0.25
QRPCQELKIGRRKLMNRREI	< -0.25
QRPCTFTISASRVSIPGEGW	< -0.25
QRQSATHQREPGLTGSSVFT	< -0.25
QRQYGRGLSLRLGYIMALNG	< -0.25
QRRFSCI	< -0.25
QRRKGRCYYSML	< -0.25
QRSDMVKLGWISVPEDGVHV	< -0.25
QRSDYLTRRVRYPATPGKAN	< -0.25
QRSFAGLPLSRRAEGSRLDA	< -0.25
QRSGMPFYMRGLPNEGPCSL	< -0.25
QRSKDRPGQPTTSSVALTFP	< -0.25
QRSRTIWGIDIRRAQRTFLC	< -0.25
QRSVSLETRISCHPLRG	< -0.25
QRTCSLWTRTSPGAIS	< -0.25

Substance	growth estimate
QRVTALDLYFAFLLPKRAVP	< -0.25
QRWMATTGVLTTIKNILSTR	< -0.25
QRYELKLWAEDQASAPVLTL	< -0.25
QSAKCLSQPIFHWAT	< -0.25
QSCVEYKVGVMYNGDHRTMR	< -0.25
QSEACDINLNVTRSRQIRLS	< -0.25
QSH	< -0.25
QSI	< -0.25
QSIRTALGVVKSLGAEVWAQ	< -0.25
QSKYYDVVGHHLGHRIG	< -0.25
QSLEWF	< -0.25
QSLGLYSLDVVGLGMLSTLA	< -0.25
QSLLEQIEVFDWRSRCIASG	< -0.25
QSLQRVALGSKAHYYRGV	< -0.25
QSNLEACSRCSLIDTPGTCV	< -0.25
QSQLLPGCRAHKHRARLCKR	< -0.25
QSQRDAQQI	-0.178
QSRH	< -0.25
QSRLDSGTRNIQWHLVASRS	< -0.25
QSRSWVPPEDSSWYCQLRTP	< -0.25
QSSGA	< -0.25
QSVADRS	< -0.25
QSWVAAYIAQKN	< -0.25
QSYKPKIVAKGCVRRDFVIA	< -0.25
QTAPR	< -0.25

Substance	growth estimate
QTARFTHMEYGAPLPAPKDS	< -0.25
QTDSILDY	< -0.25
QTEGAFSDIYFEQAFSHRVS	< -0.25
QTEGVDLLNRFLVVTSGRRT	< -0.25
QTEQDIWPLYRQCSLTVLLA	< -0.25
QTGDTLSGNCRRPFAAFHKA	< -0.25
QTIAQTL	< -0.25
QTIVASWSLG	< -0.25
QTIYARRGNEYCRVSSRSDI	< -0.25
QTKERAGPQGVRCRCAQPAG	< -0.25
QTNRGPAYAGPAP	< -0.25
QTRGE	< -0.25
QTSTCTENLARVIYHSVSWL	< -0.25
QTVRAMWRLDCVSGDIMTAF	< -0.25
QTVSALFLATVGHAFPRYFQ	< -0.25
QTWPFIDSYHET	10.3
QVFP	< -0.25
QVHCM	< -0.25
QVIHPVRARRSCAPMESPPT	< -0.25
QVLDPRLVG	< -0.25
QVLELCSWS	< -0.25
QVLVDQEGGRNGSVLVLSSR	< -0.25
QVPGAVPTRAVPDILGTMR	< -0.25
QVQEHMLANESTRGSVESAG	< -0.25
QVRCQDNN	< -0.25

Substance	growth estimate
QVRLSSNLVRGQFGVHECNH	< -0.25
QVSTSEIDGSLRPTPWGKLE	< -0.25
QVTFARAGYPHKVICRLEHP	< -0.25
QVVYKLLSKIRNFMPWIPGK	< -0.25
QVWEGIKTSGQISLCFIKNQ	< -0.25
QVYGLIA	< -0.25
QWCLRHNVASIGWIRCGICG	< -0.25
QWCRVNLGTVCGLCPRAPYA	< -0.25
QWGGELAAGLDM	< -0.25
QWLGAAG	< -0.25
QWPIMCTTQIYGCTDTNKRN	< -0.25
QWSGGSPYEKGRFQ	< -0.25
QWSKQSARTYLNSDRVLLSG	< -0.25
QYACLSLTVRLSATTLGGKS	< -0.25
QYFSWRVKSPFVGATLTKHA	< -0.25
QYGMRCTREKDCE	< -0.25
QYGVLPWRANIVPYFVVNRS	< -0.25
QYIGSSG	< -0.25
QYKAYCFPQIKARFSISDVP	< -0.25
QYMSKLVDFSNFRIQNSTSA	< -0.25
QYREKHNIQAR	< -0.25
QYRWTFPTRLGNAQLTP	< -0.25
QYTRAAQFCARYSS	< -0.25
QYWLRNCIPTPSYVAVSEGR	< -0.25
RAAGVPTLIVLVHRLAFACV	< -0.25

Substance	growth estimate
RAAHTLPLTEAALEAPSQVT	< -0.25
RAARSPRHLDISCTTGRVTG	< -0.25
RAC	< -0.25
RACEVRASVALTGGRGRS	< -0.25
RACSHHSGIKRIYSGLCSVH	< -0.25
RADMIA	< -0.25
RAEETRDS	< -0.25
RAFGLGSRSSLYVALRWEVA	< -0.25
RAFSADIQSGAPGGNIFSSD	< -0.25
RAFSKLRCRTWGSLVKVSGP	< -0.25
RAGA	< -0.25
RAGAAIYLRVALERVHHWWT	-0.246
RAGAGGIGLSIDGRE	< -0.25
RAGRDYCLKNCCVRNVPSTP	-0.25
RAGSPGSGFWRRSLVLAMP	< -0.25
RAHCTKCDQPGWLWKQITSW	< -0.25
RAHQTVCFRHRPGF	< -0.25
RAICTTAPERAAPPEGAGSF	< -0.25
RAIFVITQGRV	< -0.25
RAISGQLMIRYAT	< -0.25
RAISVILVPRAPSNLPLLRT	< -0.25
RAITLVPAKTSAL	< -0.25
RAKDDDPTEC	< -0.25
RAKFGIRTAISDEGWTAQNS	< -0.25
RAKLCSRDLHPTQDSWACRP	< -0.25

Laid out differently: entries from further up

| Substance | growth estimate |
| --- | --- |
| QTVRAMWRLDCVSGDIMTAF | < -0.25 |
| QTVSALFLATVGHAFPRYFQ | < -0.25 |
| QTWPFIDSYHET | 10.3 |
| QVFP | < -0.25 |
| QVHCM | < -0.25 |
| QVIHPVRARRSCAPMESPPT | < -0.25 |
| QVLDPRLVG | < -0.25 |
| QVLELCSWS | < -0.25 |
| QVLVDQEGGRNGSVLVLSSR | < -0.25 |
| QVPGAVPTRAVPDILGTMR | < -0.25 |
| QVQEHMLANESTRGSVESAG | < -0.25 |
| QVRCQDNN | < -0.25 |
| QVRLSSNLVRGQFGVHECNH | < -0.25 |
| QVSTSEIDGSLRPTPWGKLE | < -0.25 |
| QVTFARAGYPHKVICRLEHP | < -0.25 |
| QVVYKLLSKIRNFMPWIPGK | < -0.25 |
| QVWEGIKTSGQISLCFIKNQ | < -0.25 |
| QVYGLIA | < -0.25 |
| QWCLRHNVASIGWIRCGICG | < -0.25 |
| QWCRVNLGTVCGLCPRAPYA | < -0.25 |
| QWGGELAAGLDM | < -0.25 |
| QWLGAAG | < -0.25 |
| QWPIMCTTQIYGCTDTNKRN | < -0.25 |
| QWSGGSPYEKGRFQ | < -0.25 |
| QWSKQSARTYLNSDRVLLSG | < -0.25 |
| QYACLSLTVRLSATTLGGKS | < -0.25 |
| QYFSWRVKSPFVGATLTKHA | < -0.25 |
| QYGMRCTREKDCE | < -0.25 |
| QYGVLPWRANIVPYFVVNRS | < -0.25 |
| QYIGSSG | < -0.25 |
| QYKAYCFPQIKARFSISDVP | < -0.25 |
| QYMSKLVDFSNFRIQNSTSA | < -0.25 |
| QYREKHNIQAR | < -0.25 |
| QYRWTFPTRLGNAQLTP | < -0.25 |
| QYTRAAQFCARYSS | < -0.25 |
| QYWLRNCIPTPSYVAVSEGR | < -0.25 |
| RAAGVPTLIVLVHRLAFACV | < -0.25 |
| RAAHTLPLTEAALEAPSQVT | < -0.25 |
| RAARSPRHLDISCTTGRVTG | < -0.25 |
| RAC | < -0.25 |
| RACEVRASVALTGGRGRS | < -0.25 |
| RACSHHSGIKRIYSGLCSVH | < -0.25 |
| RADMIA | < -0.25 |
| RAEETRDS | < -0.25 |
| RAFGLGSRSSLYVALRWEVA | < -0.25 |
| RAFSADIQSGAPGGNIFSSD | < -0.25 |
| RAFSKLRCRTWGSLVKVSGP | < -0.25 |
| RAGA | < -0.25 |
| RAGAAIYLRVALERVHHWWT | -0.246 |
| RAGAGGIGLSIDGRE | < -0.25 |
| RAGRDYCLKNCCVRNVPSTP | -0.25 |
| RAGSPGSGFWRRSLVLAMP | < -0.25 |
| RAHCTKCDQPGWLWKQITSW | < -0.25 |
| RAHQTVCFRHRPGF | < -0.25 |
| RAICTTAPERAAPPEGAGSF | < -0.25 |
| RAIFVITQGRV | < -0.25 |
| RAISGQLMIRYAT | < -0.25 |
| RAISVILVPRAPSNLPLLRT | < -0.25 |
| RAITLVPAKTSAL | < -0.25 |
| RAKDDDPTEC | < -0.25 |

Further entries follow:

Substance	growth estimate
RALLDSLTTEPCPSPITQA	< -0.25
RAMMPKVYCARHGQASGTPY	< -0.25
RANTGVKADSVWATVNEIGN	-0.196
RAPPDWYVPAMCGSPRVPPK	< -0.25
RAQACMLITQVFVAYVRPTS	< -0.25
RAQEDFQNLRVMVCARVPWV	< -0.25
RAQVTGNLVLVCIVTAFPCA	< -0.25
RARMVGLRRYK	< -0.25
RARR	< -0.25
RARVDEN	< -0.25
RARVILVGYRHRLMLGRQPS	< -0.25
RASMYRPCIYV	< -0.25
RASSTRTAAADKC	< -0.25
RAT	< -0.25
RATALGTSDPEDDLSLGEGK	< -0.25
RATDELVAIRAGTRSWDCWV	< -0.25
RATGVDKFELLDDSAISSAP	-0.234
RATPVYCCALLASTRGNRAS	< -0.25
RATSC	< -0.25
RAVCGSEQAG	< -0.25
RAVCI	< -0.25
